Source: patent US9820966B2, “Stabilized statin formulations” (Cumberland Pharmaceuticals Inc., priority 2010, dated 2017)

Conditions: preliminary lyophilized formulations of AS—Ca with HPβ-CD

In the case of `CC(C)c1c(C(=O)Nc2ccccc2)c(-c2ccccc2)c(-c2ccc(F)cc2)n1CC[C@@H](O)C[C@@H](O)CC(=O)O` [AS—Ca, atorvastatin calcium trihydrate], the “initial stability of lyophilized formulation versus solution” value is reported as “improved stability”.
